PubChem BioAssay AID1224830 | NIAID – 2016
The deposit covers about 18,000 reagents; shown is a random part of them. Over the whole deposit, about 2,900 (16%) got an active call. 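Calls are made per well; low scores hint the gene aids the LPS response, high scores that it dampens it.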 Repeated entries: four replicate wells of each siRNA pool.

- Purpose: 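Genes whose knock-down alters the TNF-alpha reporter response to LPS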 (primary screen)
- Cell system: human THP-1 monocytic leukaemia cells, TNF dual-luciferase reporter clone, PMA-differentiated to macrophage-like cells
- Reagent: siRNA pool against human genes, 50 nM
- Timing: LPS for 4 h, given about 3 days after siRNA transfection
- Treatment: bacterial LPS (TLR4 ligand), 10 ng/ml
- Read-out: 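Ratio of firefly to renilla light, scaled to the plate median and expressed as a robust z-score per replicate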
- Scale: TNF reporter robust z-score: higher = stronger TNF reporter response to LPS
- Hit rule: 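a well is active when its z-score exceeds 2.8 or falls below -1.5; control wells carry no call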

gene symbol	TNF reporter robust z-score	outcome
VCX2 (variable charge X-linked 2)	-0.98	inactive
VCX2 (variable charge X-linked 2)	-1.59	active
VCX2 (variable charge X-linked 2)	-0.79	inactive
VCX2 (variable charge X-linked 2)	-0.89	inactive
FAM193B (family with sequence similarity 193 member B)	-0.46	inactive
FAM193B (family with sequence similarity 193 member B)	0.84	inactive
FAM193B (family with sequence similarity 193 member B)	-0.18	inactive
FAM193B (family with sequence similarity 193 member B)	0.77	inactive
BCL7B (BAF chromatin remodeling complex subunit BCL7B)	-0.28	inactive
BCL7B (BAF chromatin remodeling complex subunit BCL7B)	-0.63	inactive
BCL7B (BAF chromatin remodeling complex subunit BCL7B)	-0.39	inactive
BCL7B (BAF chromatin remodeling complex subunit BCL7B)	-0.27	inactive
SLCO6A1	-0.96	inactive
SLCO6A1	-0.28	inactive
SLCO6A1	-0.23	inactive
SLCO6A1	0.04	inactive
MMP17 (matrix metallopeptidase 17)	-0.65	inactive
MMP17 (matrix metallopeptidase 17)	0.06	inactive
MMP17 (matrix metallopeptidase 17)	-0.27	inactive
MMP17 (matrix metallopeptidase 17)	0.82	inactive
HRH4 (histamine receptor H4)	-0.82	inactive
HRH4 (histamine receptor H4)	-0.61	inactive
HRH4 (histamine receptor H4)	-0.76	inactive
HRH4 (histamine receptor H4)	-0.22	inactive
CAPN9 (calpain 9)	0.33	inactive
CAPN9 (calpain 9)	-0.56	inactive
CAPN9 (calpain 9)	0.87	inactive
CAPN9 (calpain 9)	1.3	inactive
FANCL (FA complementation group L)	-0.68	inactive
FANCL (FA complementation group L)	0.07	inactive
FANCL (FA complementation group L)	0.47	inactive
FANCL (FA complementation group L)	0.26	inactive
ZC3H10 (zinc finger CCCH-type containing 10)	-0.55	inactive
ZC3H10 (zinc finger CCCH-type containing 10)	0.31	inactive
ZC3H10 (zinc finger CCCH-type containing 10)	1.37	inactive
ZC3H10 (zinc finger CCCH-type containing 10)	0.39	inactive
KRTAP22-1 (keratin associated protein 22-1)	-0.11	inactive
KRTAP22-1 (keratin associated protein 22-1)	0	inactive
KRTAP22-1 (keratin associated protein 22-1)	0.22	inactive
KRTAP22-1 (keratin associated protein 22-1)	0.36	inactive
SPTBN1 (spectrin beta, non-erythrocytic 1)	0.31	inactive
SPTBN1 (spectrin beta, non-erythrocytic 1)	0.01	inactive
SPTBN1 (spectrin beta, non-erythrocytic 1)	-1.03	inactive
SPTBN1 (spectrin beta, non-erythrocytic 1)	-1.37	inactive
PCSK1N (proprotein convertase subtilisin/kexin type 1 inhibitor)	-1.15	inactive
PCSK1N (proprotein convertase subtilisin/kexin type 1 inhibitor)	-1.02	inactive
PCSK1N (proprotein convertase subtilisin/kexin type 1 inhibitor)	0	inactive
PCSK1N (proprotein convertase subtilisin/kexin type 1 inhibitor)	-0.88	inactive
FRG1 (FSHD region gene 1)	0.57	inactive
FRG1 (FSHD region gene 1)	0.09	inactive
FRG1 (FSHD region gene 1)	0.08	inactive
FRG1 (FSHD region gene 1)	0.4	inactive
RHBDD2 (rhomboid domain containing 2)		inactive
USF3 (upstream transcription factor family member 3)	-0.71	inactive
USF3 (upstream transcription factor family member 3)	-1.14	inactive
USF3 (upstream transcription factor family member 3)	-1.17	inactive
USF3 (upstream transcription factor family member 3)	-0.4	inactive
STIP1 (stress induced phosphoprotein 1)	0.04	inactive
STIP1 (stress induced phosphoprotein 1)	0.54	inactive
STIP1 (stress induced phosphoprotein 1)	0.35	inactive
STIP1 (stress induced phosphoprotein 1)	0.13	inactive
DNAJC28 (DnaJ heat shock protein family (Hsp40) member C28)	-0.04	inactive
DNAJC28 (DnaJ heat shock protein family (Hsp40) member C28)	-0.09	inactive
DNAJC28 (DnaJ heat shock protein family (Hsp40) member C28)	0.61	inactive
DNAJC28 (DnaJ heat shock protein family (Hsp40) member C28)	0.31	inactive
WBP2 (WW domain binding protein 2)	0.21	inactive
WBP2 (WW domain binding protein 2)	0.28	inactive
WBP2 (WW domain binding protein 2)	0.29	inactive
WBP2 (WW domain binding protein 2)	0.85	inactive
SETX (senataxin)	0.36	inactive
SETX (senataxin)	0.64	inactive
SETX (senataxin)	1.35	inactive
SETX (senataxin)	1.89	inactive
MAST3 (microtubule associated serine/threonine kinase 3)	-1.99	active
MAST3 (microtubule associated serine/threonine kinase 3)	-0.72	inactive
MAST3 (microtubule associated serine/threonine kinase 3)	-0.74	inactive
MAST3 (microtubule associated serine/threonine kinase 3)	-0.89	inactive
PTPN14 (protein tyrosine phosphatase non-receptor type 14)	1.02	inactive
PTPN14 (protein tyrosine phosphatase non-receptor type 14)	0.8	inactive
PTPN14 (protein tyrosine phosphatase non-receptor type 14)	0.4	inactive
PTPN14 (protein tyrosine phosphatase non-receptor type 14)	1.85	inactive
MOCOS (molybdenum cofactor sulfurase)	-1.08	inactive
MOCOS (molybdenum cofactor sulfurase)	-0.61	inactive
MOCOS (molybdenum cofactor sulfurase)	-0.91	inactive
MOCOS (molybdenum cofactor sulfurase)	0.41	inactive
SUCLA2 (succinate-CoA ligase ADP-forming subunit beta)	-0.41	inactive
SUCLA2 (succinate-CoA ligase ADP-forming subunit beta)	-0.09	inactive
SUCLA2 (succinate-CoA ligase ADP-forming subunit beta)	-0.35	inactive
SUCLA2 (succinate-CoA ligase ADP-forming subunit beta)	-0.79	inactive
KCNAB1	-1.54	active
KCNAB1	-1	inactive
KCNAB1	-1.34	inactive
KCNAB1	-1.73	active
CCL2 (C-C motif chemokine ligand 2)	-0.65	inactive
CCL2 (C-C motif chemokine ligand 2)	-0.63	inactive
CCL2 (C-C motif chemokine ligand 2)	-0.69	inactive
CCL2 (C-C motif chemokine ligand 2)	-0.75	inactive
RNF34 (ring finger protein 34)	-0.28	inactive
RNF34 (ring finger protein 34)	0.78	inactive
RNF34 (ring finger protein 34)	0.24	inactive
RNF34 (ring finger protein 34)	-0.09	inactive
NQO2 (N-ribosyldihydronicotinamide:quinone dehydrogenase 2)	-0.42	inactive
NQO2 (N-ribosyldihydronicotinamide:quinone dehydrogenase 2)	0.11	inactive
NQO2 (N-ribosyldihydronicotinamide:quinone dehydrogenase 2)	0.3	inactive
NQO2 (N-ribosyldihydronicotinamide:quinone dehydrogenase 2)	-1.7	active
SLC28A2	-0.6	inactive
SLC28A2	1.12	inactive
SLC28A2	-0.19	inactive
SLC28A2	0.18	inactive
MS4A1 (membrane spanning 4-domains A1)	-0.28	inactive
MS4A1 (membrane spanning 4-domains A1)	-0.2	inactive
MS4A1 (membrane spanning 4-domains A1)	0.01	inactive
MS4A1 (membrane spanning 4-domains A1)	0.33	inactive
ZNF16 (zinc finger protein 16)	-1.25	inactive
ZNF16 (zinc finger protein 16)	-0.76	inactive
ZNF16 (zinc finger protein 16)	-1.41	inactive
ZNF16 (zinc finger protein 16)	-0.72	inactive
GZMB (granzyme B)	1.2	inactive
GZMB (granzyme B)	0.31	inactive
GZMB (granzyme B)	0.01	inactive
GZMB (granzyme B)	1.1	inactive
DENND4A (DENN domain containing 4A)	7.11	active
DENND4A (DENN domain containing 4A)	0.68	inactive
DENND4A (DENN domain containing 4A)	1.61	inactive
DENND4A (DENN domain containing 4A)	2.15	inactive
UGT2A1 (UDP glucuronosyltransferase family 2 member A1 complex locus)	0.62	inactive
UGT2A1 (UDP glucuronosyltransferase family 2 member A1 complex locus)	1.04	inactive
UGT2A1 (UDP glucuronosyltransferase family 2 member A1 complex locus)	-0.33	inactive
UGT2A1 (UDP glucuronosyltransferase family 2 member A1 complex locus)	0.31	inactive
SH2B1 (SH2B adaptor protein 1)	3.2	active
SH2B1 (SH2B adaptor protein 1)	3.71	active
SH2B1 (SH2B adaptor protein 1)	0.32	inactive
SH2B1 (SH2B adaptor protein 1)	0.33	inactive
FAM174A (family with sequence similarity 174 member A)	2.74	inactive
FAM174A (family with sequence similarity 174 member A)	0.6	inactive
FAM174A (family with sequence similarity 174 member A)	-1.32	inactive
FAM174A (family with sequence similarity 174 member A)	-0.4	inactive
RNF44 (ring finger protein 44)	0.31	inactive
RNF44 (ring finger protein 44)	-0.23	inactive
RNF44 (ring finger protein 44)	-1.8	active
RNF44 (ring finger protein 44)	-0.65	inactive

A portion taken from the entries so far, as a working copy:
gene symbol	TNF reporter robust z-score	outcome
SPTBN1 (spectrin beta, non-erythrocytic 1)	0.01	inactive
SPTBN1 (spectrin beta, non-erythrocytic 1)	-1.03	inactive
SPTBN1 (spectrin beta, non-erythrocytic 1)	-1.37	inactive
PCSK1N (proprotein convertase subtilisin/kexin type 1 inhibitor)	-1.15	inactive
PCSK1N (proprotein convertase subtilisin/kexin type 1 inhibitor)	-1.02	inactive
PCSK1N (proprotein convertase subtilisin/kexin type 1 inhibitor)	0	inactive
PCSK1N (proprotein convertase subtilisin/kexin type 1 inhibitor)	-0.88	inactive
FRG1 (FSHD region gene 1)	0.57	inactive
FRG1 (FSHD region gene 1)	0.09	inactive
FRG1 (FSHD region gene 1)	0.08	inactive
FRG1 (FSHD region gene 1)	0.4	inactive
RHBDD2 (rhomboid domain containing 2)		inactive
